# This is one part of the list.
# The chains behind the UniProt entries cited, without tags or fusion partners. Where a name states a change or a piece, a line headed by the entry shows the natural chain unless it says otherwise.
# UniProt Q8WU79: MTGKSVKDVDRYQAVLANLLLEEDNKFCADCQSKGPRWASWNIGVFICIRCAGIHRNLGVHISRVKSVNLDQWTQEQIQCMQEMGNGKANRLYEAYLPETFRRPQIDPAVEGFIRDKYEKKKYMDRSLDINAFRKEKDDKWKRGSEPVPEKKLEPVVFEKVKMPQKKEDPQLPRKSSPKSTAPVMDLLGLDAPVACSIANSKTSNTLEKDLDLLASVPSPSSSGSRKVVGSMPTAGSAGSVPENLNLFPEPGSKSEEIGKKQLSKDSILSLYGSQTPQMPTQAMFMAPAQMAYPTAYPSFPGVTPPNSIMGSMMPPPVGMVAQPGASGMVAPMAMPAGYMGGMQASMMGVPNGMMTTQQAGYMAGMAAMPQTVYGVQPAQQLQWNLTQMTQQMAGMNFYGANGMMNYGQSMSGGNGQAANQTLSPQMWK
# UniProt Q9H4I9: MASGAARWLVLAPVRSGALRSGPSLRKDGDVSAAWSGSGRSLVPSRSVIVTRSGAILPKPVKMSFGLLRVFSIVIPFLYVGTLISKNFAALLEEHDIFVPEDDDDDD
# UniProt P84022, whole entry, looked up: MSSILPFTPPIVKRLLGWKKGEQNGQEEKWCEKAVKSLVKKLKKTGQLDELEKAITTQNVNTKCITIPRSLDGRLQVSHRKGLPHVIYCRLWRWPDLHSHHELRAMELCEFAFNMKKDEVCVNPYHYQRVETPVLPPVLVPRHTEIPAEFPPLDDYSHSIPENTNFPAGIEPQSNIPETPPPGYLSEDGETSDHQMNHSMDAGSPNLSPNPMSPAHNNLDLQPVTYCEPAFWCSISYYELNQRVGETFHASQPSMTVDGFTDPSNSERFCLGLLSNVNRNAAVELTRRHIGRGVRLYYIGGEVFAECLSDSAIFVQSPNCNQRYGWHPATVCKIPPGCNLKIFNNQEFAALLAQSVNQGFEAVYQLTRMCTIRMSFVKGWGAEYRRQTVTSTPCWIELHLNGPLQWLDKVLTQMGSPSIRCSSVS
# UniProt P19634, whole entry, looked up: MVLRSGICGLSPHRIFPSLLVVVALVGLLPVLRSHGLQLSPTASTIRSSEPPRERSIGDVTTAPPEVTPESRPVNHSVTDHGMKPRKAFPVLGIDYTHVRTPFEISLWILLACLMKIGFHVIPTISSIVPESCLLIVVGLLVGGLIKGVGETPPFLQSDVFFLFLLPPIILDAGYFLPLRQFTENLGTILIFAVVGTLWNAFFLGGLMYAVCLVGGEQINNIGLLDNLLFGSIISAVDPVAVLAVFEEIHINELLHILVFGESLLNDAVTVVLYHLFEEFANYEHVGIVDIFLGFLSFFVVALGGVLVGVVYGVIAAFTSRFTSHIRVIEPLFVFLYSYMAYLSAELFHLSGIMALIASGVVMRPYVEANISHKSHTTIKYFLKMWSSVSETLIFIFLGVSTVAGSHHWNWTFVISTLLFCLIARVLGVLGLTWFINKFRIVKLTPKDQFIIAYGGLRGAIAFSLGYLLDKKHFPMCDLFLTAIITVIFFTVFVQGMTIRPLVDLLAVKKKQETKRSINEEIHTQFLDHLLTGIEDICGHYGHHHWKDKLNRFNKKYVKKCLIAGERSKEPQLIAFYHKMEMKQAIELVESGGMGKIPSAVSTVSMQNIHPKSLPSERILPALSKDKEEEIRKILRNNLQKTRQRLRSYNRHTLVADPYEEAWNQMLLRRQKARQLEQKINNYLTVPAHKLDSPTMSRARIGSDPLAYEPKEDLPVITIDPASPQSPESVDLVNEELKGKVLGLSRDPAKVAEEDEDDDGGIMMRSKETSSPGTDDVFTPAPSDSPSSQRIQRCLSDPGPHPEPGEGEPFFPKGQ
# UniProt P18583: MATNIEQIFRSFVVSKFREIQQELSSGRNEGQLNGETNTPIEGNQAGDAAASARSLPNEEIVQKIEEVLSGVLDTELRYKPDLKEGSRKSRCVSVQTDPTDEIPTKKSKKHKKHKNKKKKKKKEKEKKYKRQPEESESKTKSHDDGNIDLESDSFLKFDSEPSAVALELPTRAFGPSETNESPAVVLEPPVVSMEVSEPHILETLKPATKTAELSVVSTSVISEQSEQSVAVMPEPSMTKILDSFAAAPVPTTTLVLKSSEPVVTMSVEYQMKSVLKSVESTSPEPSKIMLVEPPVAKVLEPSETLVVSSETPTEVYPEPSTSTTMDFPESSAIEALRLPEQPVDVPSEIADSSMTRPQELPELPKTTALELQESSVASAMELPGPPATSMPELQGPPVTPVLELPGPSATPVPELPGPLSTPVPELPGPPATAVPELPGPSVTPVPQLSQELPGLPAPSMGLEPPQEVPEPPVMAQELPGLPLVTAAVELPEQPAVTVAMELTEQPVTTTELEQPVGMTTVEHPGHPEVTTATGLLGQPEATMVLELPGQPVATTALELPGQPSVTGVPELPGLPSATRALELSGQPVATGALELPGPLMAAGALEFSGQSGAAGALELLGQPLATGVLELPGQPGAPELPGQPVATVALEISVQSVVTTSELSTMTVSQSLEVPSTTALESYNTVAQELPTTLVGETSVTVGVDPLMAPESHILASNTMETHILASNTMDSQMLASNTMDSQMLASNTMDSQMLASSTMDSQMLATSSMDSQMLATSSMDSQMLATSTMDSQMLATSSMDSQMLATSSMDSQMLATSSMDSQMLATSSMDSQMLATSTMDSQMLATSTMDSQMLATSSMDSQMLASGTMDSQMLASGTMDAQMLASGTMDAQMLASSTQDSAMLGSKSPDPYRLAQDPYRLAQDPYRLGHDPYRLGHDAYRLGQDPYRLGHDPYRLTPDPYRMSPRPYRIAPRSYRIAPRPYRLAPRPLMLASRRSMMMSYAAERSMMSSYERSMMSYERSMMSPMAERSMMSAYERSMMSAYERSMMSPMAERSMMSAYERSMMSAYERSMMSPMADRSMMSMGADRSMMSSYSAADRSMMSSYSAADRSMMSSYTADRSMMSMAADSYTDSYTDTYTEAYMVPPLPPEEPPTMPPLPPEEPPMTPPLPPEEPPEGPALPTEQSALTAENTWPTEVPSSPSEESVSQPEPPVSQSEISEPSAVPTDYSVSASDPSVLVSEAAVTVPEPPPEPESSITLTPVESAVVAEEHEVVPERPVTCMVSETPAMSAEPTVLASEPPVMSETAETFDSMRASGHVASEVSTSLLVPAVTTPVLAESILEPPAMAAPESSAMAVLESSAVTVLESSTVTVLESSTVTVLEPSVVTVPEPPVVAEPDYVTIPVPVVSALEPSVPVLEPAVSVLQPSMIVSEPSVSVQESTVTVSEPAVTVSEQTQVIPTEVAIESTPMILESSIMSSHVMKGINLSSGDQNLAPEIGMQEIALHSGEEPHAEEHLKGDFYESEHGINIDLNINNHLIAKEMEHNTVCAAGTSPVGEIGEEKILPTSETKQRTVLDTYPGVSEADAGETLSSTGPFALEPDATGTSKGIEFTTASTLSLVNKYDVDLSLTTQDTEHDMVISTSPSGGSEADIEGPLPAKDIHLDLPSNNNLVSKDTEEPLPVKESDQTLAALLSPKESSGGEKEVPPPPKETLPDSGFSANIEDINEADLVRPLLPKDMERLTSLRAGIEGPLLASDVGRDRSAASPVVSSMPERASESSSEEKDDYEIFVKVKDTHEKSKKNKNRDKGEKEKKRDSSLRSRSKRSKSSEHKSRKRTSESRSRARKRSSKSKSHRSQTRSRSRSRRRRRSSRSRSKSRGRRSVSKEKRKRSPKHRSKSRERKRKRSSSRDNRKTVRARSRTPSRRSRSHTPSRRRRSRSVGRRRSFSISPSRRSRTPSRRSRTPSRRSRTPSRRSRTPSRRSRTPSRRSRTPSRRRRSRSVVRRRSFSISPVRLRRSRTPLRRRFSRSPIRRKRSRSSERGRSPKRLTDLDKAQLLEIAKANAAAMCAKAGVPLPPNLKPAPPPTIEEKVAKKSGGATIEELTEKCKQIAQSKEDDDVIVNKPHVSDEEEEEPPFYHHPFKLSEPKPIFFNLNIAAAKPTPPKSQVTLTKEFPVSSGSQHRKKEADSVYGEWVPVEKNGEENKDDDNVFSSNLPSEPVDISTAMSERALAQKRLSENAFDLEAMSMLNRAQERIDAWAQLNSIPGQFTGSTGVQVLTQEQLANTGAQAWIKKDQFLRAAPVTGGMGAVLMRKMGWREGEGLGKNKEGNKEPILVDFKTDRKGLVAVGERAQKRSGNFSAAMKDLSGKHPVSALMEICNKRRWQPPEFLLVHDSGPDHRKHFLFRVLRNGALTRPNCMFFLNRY
# UniProt Q9Y5W8: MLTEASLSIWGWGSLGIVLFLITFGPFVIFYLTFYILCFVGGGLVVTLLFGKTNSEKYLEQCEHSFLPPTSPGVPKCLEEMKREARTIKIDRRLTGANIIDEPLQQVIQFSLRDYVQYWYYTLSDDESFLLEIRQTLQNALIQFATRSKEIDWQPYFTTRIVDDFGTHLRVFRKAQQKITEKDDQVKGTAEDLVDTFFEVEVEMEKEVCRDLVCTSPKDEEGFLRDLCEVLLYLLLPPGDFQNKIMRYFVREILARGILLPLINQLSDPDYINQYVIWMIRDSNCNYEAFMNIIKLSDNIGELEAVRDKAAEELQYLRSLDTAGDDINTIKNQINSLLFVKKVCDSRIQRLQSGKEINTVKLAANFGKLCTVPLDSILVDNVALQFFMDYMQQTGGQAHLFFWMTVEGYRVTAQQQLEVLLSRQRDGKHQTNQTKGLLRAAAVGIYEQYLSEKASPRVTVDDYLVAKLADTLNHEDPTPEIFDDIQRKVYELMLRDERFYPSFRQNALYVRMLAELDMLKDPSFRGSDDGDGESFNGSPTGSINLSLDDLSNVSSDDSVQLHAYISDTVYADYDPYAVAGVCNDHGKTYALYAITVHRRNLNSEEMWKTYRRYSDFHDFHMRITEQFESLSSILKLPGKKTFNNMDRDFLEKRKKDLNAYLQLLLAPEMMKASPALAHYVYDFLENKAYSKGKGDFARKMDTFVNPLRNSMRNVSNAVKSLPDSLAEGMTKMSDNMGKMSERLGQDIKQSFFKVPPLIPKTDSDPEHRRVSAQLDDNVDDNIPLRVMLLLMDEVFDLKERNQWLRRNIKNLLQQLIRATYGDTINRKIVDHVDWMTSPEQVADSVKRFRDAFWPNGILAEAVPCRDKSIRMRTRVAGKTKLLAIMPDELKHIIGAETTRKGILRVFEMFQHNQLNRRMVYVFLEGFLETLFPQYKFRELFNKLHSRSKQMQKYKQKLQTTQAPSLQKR
# UniProt Q9NRS6: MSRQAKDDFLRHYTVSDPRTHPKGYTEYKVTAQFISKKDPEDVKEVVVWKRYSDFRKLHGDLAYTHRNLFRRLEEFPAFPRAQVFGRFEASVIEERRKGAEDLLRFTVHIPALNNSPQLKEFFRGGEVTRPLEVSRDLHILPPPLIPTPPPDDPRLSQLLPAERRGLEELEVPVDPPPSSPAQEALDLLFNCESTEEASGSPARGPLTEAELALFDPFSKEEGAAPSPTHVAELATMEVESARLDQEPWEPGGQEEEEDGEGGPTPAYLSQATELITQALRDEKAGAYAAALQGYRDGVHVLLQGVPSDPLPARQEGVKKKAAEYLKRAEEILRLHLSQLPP
# UniProt O95219: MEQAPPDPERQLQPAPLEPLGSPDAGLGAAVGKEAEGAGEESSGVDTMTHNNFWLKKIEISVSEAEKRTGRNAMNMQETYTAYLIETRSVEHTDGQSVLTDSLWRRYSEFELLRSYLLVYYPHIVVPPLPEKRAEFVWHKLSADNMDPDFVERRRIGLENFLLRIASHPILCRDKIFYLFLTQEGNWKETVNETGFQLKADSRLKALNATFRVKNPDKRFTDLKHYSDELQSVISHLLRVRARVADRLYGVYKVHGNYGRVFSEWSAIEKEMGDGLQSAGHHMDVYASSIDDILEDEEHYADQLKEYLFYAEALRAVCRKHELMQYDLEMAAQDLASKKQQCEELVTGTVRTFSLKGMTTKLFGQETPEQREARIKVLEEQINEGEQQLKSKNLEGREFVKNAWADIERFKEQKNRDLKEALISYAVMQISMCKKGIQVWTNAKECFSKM
# UniProt Q6J4K2: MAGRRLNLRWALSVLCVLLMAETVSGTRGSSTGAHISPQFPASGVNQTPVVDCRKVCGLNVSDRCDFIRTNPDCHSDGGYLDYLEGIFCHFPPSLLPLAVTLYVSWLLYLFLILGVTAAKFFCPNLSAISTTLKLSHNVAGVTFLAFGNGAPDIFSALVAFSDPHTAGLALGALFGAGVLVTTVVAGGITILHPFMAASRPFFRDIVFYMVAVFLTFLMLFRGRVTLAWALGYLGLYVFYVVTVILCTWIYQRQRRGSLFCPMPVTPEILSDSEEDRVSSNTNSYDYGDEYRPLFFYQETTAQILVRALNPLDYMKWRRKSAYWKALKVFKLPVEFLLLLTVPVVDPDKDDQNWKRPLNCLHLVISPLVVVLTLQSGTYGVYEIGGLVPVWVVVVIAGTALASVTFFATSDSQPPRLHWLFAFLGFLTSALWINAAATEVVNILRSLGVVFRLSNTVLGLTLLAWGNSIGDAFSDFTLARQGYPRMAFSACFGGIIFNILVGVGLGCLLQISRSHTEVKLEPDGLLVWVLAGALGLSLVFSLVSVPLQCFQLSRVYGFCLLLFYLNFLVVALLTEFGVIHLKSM
# What was measured:
# Assay in all cases: log2 fold change, soluble protein after heating vs DMSO (PISA); higher = thermal stabilisation; K562 cells, 10 uM, 30 min; active = over 0.2 and 3.5 SD of the protein, either way, in both replicates (recomputed)
# saracatinib = compound: CN1CCN(CCOc2cc(OC3CCOCC3)c3c(Nc4c(Cl)ccc5c4OCO5)ncnc3c2)CC1 [saracatinib]
# Method in brief: (§1)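 K562 cells at 2×10^6 cells/mL were exposed to 10 μM compound for 30 min, then aliquots were heated for 3 min across 48°C-58°C, pooled, and extracted in PBS containing 0.5% NP-40 at 4°C. The supernatant after 21,000xg for 90 min was taken as soluble protein and measured by TMTpro 16plex LC-MS/MS with channel sums equalised. Thermal stability is reported relative to control samples, with values from duplicates. Fold changes are given on a log2 scale.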
# sotrastaurin = compound: CN1CCN(c2nc(C3=C(c4c[nH]c5ccccc45)C(=O)NC3=O)c3ccccc3n2)CC1 [sotrastaurin]
# Method in brief: as §1
# defactinib = compound: CNC(=O)c1ccc(Nc2ncc(C(F)(F)F)c(NCc3nccnc3N(C)S(C)(=O)=O)n2)cc1 [defactinib]
# Method in brief: as §1
# [1] = compound: CNc1nc(-c2ccc3c(N)n[nH]c3c2)cc(N2C[C@@H](C(=O)NC3CCCCC3)CC[C@H]2C)n1
# Method in brief: as §1
# [2] = compound: COC(=O)[C@H](CCSC)NC(=O)C1=C(C=C(C=C1)NC[C@H](CS)N)C2=CC=CC=C2
# Method in brief: as §1
# [3] = compound: COC1=CC=C(C=C1)CN2C=CC3=C2C=C(C=C3)C(=O)NO
# Method in brief: as §1
# filanesib = compound: CON(C)C(=O)N1N=C(c2cc(F)ccc2F)S[C@@]1(CCCN)c1ccccc1 [filanesib]
# Method in brief: as §1
# idasanutlin = compound: COc1cc(C(=O)O)ccc1NC(=O)[C@@H]1N[C@@H](CC(C)(C)C)[C@](C#N)(c2ccc(Cl)cc2F)[C@H]1c1cccc(Cl)c1F [idasanutlin]
# Method in brief: as §1
# alisertib = compound: COc1cc(Nc2ncc3c(n2)-c2ccc(Cl)cc2C(c2c(F)cccc2OC)=NC3)ccc1C(=O)O [alisertib]
# Method in brief: as §1
# [4] = compound: COc1cc2nc(-c3cc(F)ccc3O)nc(N[C@@H]3CNC[C@H]3C(C)(C)O)c2cc1OC
# Method in brief: as §1
# [5] = compound: COc1cccc2cc(-c3nc([C@H]4CC[C@H](C(=O)O)CC4)n4ncnc(N)c34)[nH]c12
# Method in brief: as §1
# lapatinib = compound: CS(=O)(=O)CCNCc1ccc(-c2ccc3ncnc(Nc4ccc(OCc5cccc(F)c5)c(Cl)c4)c3c2)o1 [lapatinib]
# Method in brief: as §1
# pictilisib = compound: CS(=O)(=O)N1CCN(Cc2cc3nc(-c4cccc5[nH]ncc45)nc(N4CCOCC4)c3s2)CC1 [pictilisib]
# Method in brief: as §1
# Tubastatin A = compound: CN1CCc2c(c3ccccc3n2Cc2ccc(C(=O)NO)cc2)C1 [Tubastatin A]
# Method in brief: as §1
# [6] = compound: CNC(=O)C1=CC=CC=C1NC2=NC(=NC=C2Cl)NC3=C(C=C(C=C3)N4CCOCC4)OC
# Method in brief: as §1
# rucaparib = compound: CNCc1ccc(-c2[nH]c3cc(F)cc4c3c2CCNC4=O)cc1 [rucaparib]
# Method in brief: as §1
# encorafenib = compound: COC(=O)N[C@@H](C)CNc1nccc(-c2cn(C(C)C)nc2-c2cc(Cl)cc(NS(C)(=O)=O)c2F)n1 [encorafenib]
# Method in brief: as §1
# zotarolimus = compound: CO[C@H]1C[C@@H]2CC[C@@H](C)[C@@](O)(O2)C(=O)C(=O)N2CCCC[C@H]2C(=O)O[C@H]([C@H](C)C[C@@H]2CC[C@H](n3cnnn3)[C@H](OC)C2)CC(=O)[C@H](C)/C=C(\C)[C@@H](O)[C@@H](OC)C(=O)[C@H](C)C[C@H](C)/C=C/C=C/C=C/1C [zotarolimus]
# Method in brief: as §1
# gefitinib = compound: COc1cc2ncnc(Nc3ccc(F)c(Cl)c3)c2cc1OCCCN1CCOCC1 [gefitinib]
# Method in brief: as §1
# alvocidib = compound: CN1CC[C@H](c2c(O)cc(O)c3c(=O)cc(-c4ccccc4Cl)oc23)[C@H](O)C1 [alvocidib]
# Method in brief: as §1
Target,log2 fold change (saracatinib),log2 fold change (sotrastaurin),log2 fold change (defactinib),log2 fold change [1],log2 fold change [2],log2 fold change [3],log2 fold change (filanesib),log2 fold change (idasanutlin),log2 fold change (alisertib),log2 fold change [4],log2 fold change [5],log2 fold change (lapatinib),log2 fold change (pictilisib),log2 fold change (Tubastatin A),log2 fold change [6],log2 fold change (rucaparib),log2 fold change (encorafenib),log2 fold change (zotarolimus),log2 fold change (gefitinib),log2 fold change (alvocidib)
SMPD1 (UniProt P17405),inactive: -0.061,inactive: -0.176,inactive: -0.026,inactive: 0.022,inactive: 0.01,inactive: 0.129,inactive: -0.127,inactive: -0.089,inactive: 0.081,inactive: -0.217,inactive: 0.209,inactive: -0.058,inactive: -0.061,–,–,–,–,–,–,–
SMAP2 (UniProt Q8WU79),inactive: -0.047,inactive: -0.052,inactive: -0.12,inactive: -0.026,inactive: -0.043,inactive: -0.029,inactive: 0.048,inactive: -0.039,inactive: 0.11,active: 0.247,inactive: -0.072,inactive: -0.009,inactive: -0.015,inactive: 0.029,inactive: 0.107,inactive: 0.114,inactive: 0.087,inactive: 0.045,inactive: 0.043,–
SMIM4 (UniProt Q8WVI0),inactive: 0.009,–,inactive: 0.019,inactive: -0.11,inactive: -0.011,inactive: -0.057,–,inactive: -0.109,inactive: -0.061,inactive: -0.018,inactive: 0.08,inactive: 0.108,–,inactive: -0.084,inactive: -0.007,inactive: 0.065,inactive: -0.025,inactive: 0.065,inactive: -0.044,inactive: -0.041
SP2 (UniProt Q02086),inactive: 0.09,inactive: 0.091,–,inactive: -0.132,–,inactive: -0.319,inactive: 0.012,inactive: 0.277,–,–,–,–,–,–,–,inactive: 0.324,inactive: -0.025,–,–,–
SMDT1 (UniProt Q9H4I9),inactive: 0.092,inactive: -0.077,inactive: 0.014,inactive: -0.064,inactive: 0.003,inactive: -0.053,active: -0.39,inactive: -0.087,inactive: -0.058,–,inactive: 0.014,–,inactive: 0.095,inactive: 0.035,–,inactive: 0.057,inactive: 0.011,inactive: -0.014,–,–
SMAD3 (UniProt P84022),inactive: 0.082,–,inactive: -0.187,inactive: 0.078,inactive: 0.119,–,–,inactive: 0.075,–,inactive: 0.015,–,inactive: -0.019,inactive: -0.228,inactive: 0.092,–,–,–,inactive: -0.056,–,inactive: 0.021
SNRPD2 (UniProt K7EJB5),inactive: -0.109,–,inactive: 0.08,inactive: -0.051,inactive: 0.02,inactive: -0.099,–,inactive: 0.035,inactive: -0.077,inactive: 0.159,inactive: 0.039,inactive: -0.134,inactive: 0.244,inactive: 0,–,inactive: -0.04,inactive: -0.056,inactive: -0.258,inactive: 0.015,inactive: 0.078
SLC9A1 (UniProt P19634),inactive: 0.064,inactive: 0.037,inactive: -0.02,inactive: -0.122,inactive: 0,inactive: -0.03,inactive: 0.031,inactive: -0.037,inactive: 0.066,inactive: 0.061,inactive: 0.157,inactive: 0.03,inactive: -0.004,inactive: -0.087,inactive: 0.176,inactive: 0.033,inactive: 0.043,–,inactive: -0.001,–
SON isoform 9 (UniProt P18583),inactive: 0.05,inactive: -0.042,inactive: -0.123,inactive: -0.323,inactive: -0.012,inactive: -0.049,inactive: 0.047,inactive: 0.052,–,inactive: 0.207,–,inactive: 0.081,inactive: -0.086,inactive: -0.088,inactive: 0.004,inactive: 0.092,inactive: -0.103,–,inactive: 0.118,–
SNX13 (UniProt Q9Y5W8),inactive: 0.005,inactive: 0.186,–,inactive: -0.003,–,–,inactive: 0.016,–,inactive: 0.111,–,inactive: 0.268,–,–,–,inactive: -0.042,–,–,–,–,–
SNX15 (UniProt Q9NRS6),inactive: -0.039,inactive: -0.048,inactive: -0.177,inactive: -0.043,inactive: 0.025,inactive: -0.166,inactive: 0.151,inactive: 0.108,inactive: -0.027,inactive: 0.019,inactive: 0.032,inactive: -0.139,inactive: 0.018,inactive: 0.045,–,inactive: -0.063,inactive: 0.098,inactive: -0.034,inactive: 0.126,–
SNX4 (UniProt O95219),–,–,–,–,–,–,–,–,–,–,–,–,inactive: 0.132,–,–,–,–,inactive: 0.044,–,inactive: 0.097
SNRPN isoform 2 (UniProt P63162),–,–,–,–,–,inactive: 0.198,–,inactive: 0.332,–,inactive: -0.331,–,inactive: -0.137,inactive: -0.225,–,–,inactive: 0.056,inactive: -0.284,–,–,–
SMARCAL1 (UniProt Q9NZC9),–,–,inactive: -0.126,–,inactive: -0.085,–,–,–,inactive: 0.128,–,inactive: -0.435,–,–,–,inactive: -0.043,–,–,–,–,–
SLC8B1 (UniProt Q6J4K2),inactive: 0.036,–,inactive: 0.029,inactive: -0.176,inactive: -0.028,inactive: 0.044,–,inactive: -0.034,–,inactive: 0.132,–,inactive: 0.066,inactive: 0.016,–,inactive: -0.019,–,–,inactive: -0.097,–,–

# Nothing new here: entries from further up.
Target,log2 fold change (saracatinib),log2 fold change (sotrastaurin),log2 fold change (defactinib),log2 fold change [1],log2 fold change [2],log2 fold change [3],log2 fold change (filanesib),log2 fold change (idasanutlin),log2 fold change (alisertib),log2 fold change [4],log2 fold change [5],log2 fold change (lapatinib),log2 fold change (pictilisib),log2 fold change (Tubastatin A),log2 fold change [6],log2 fold change (rucaparib),log2 fold change (encorafenib),log2 fold change (zotarolimus),log2 fold change (gefitinib),log2 fold change (alvocidib)
SMIM4 (UniProt Q8WVI0),inactive: 0.009,–,inactive: 0.019,inactive: -0.11,inactive: -0.011,inactive: -0.057,–,inactive: -0.109,inactive: -0.061,inactive: -0.018,inactive: 0.08,inactive: 0.108,–,inactive: -0.084,inactive: -0.007,inactive: 0.065,inactive: -0.025,inactive: 0.065,inactive: -0.044,inactive: -0.041
SP2 (UniProt Q02086),inactive: 0.09,inactive: 0.091,–,inactive: -0.132,–,inactive: -0.319,inactive: 0.012,inactive: 0.277,–,–,–,–,–,–,–,inactive: 0.324,inactive: -0.025,–,–,–

# Reference: the supplement of paper PMC10849652
